Article PMC8262191
These are yes or no findings as the source states them, for the method shown. Binding seen in cells or lysates may run through a third protein. Some results given as binding are weak or reduced against the parent protein; the word gives no strength.

The chains behind the UniProt entries cited, without tags or fusion partners.
UniProt Q15910: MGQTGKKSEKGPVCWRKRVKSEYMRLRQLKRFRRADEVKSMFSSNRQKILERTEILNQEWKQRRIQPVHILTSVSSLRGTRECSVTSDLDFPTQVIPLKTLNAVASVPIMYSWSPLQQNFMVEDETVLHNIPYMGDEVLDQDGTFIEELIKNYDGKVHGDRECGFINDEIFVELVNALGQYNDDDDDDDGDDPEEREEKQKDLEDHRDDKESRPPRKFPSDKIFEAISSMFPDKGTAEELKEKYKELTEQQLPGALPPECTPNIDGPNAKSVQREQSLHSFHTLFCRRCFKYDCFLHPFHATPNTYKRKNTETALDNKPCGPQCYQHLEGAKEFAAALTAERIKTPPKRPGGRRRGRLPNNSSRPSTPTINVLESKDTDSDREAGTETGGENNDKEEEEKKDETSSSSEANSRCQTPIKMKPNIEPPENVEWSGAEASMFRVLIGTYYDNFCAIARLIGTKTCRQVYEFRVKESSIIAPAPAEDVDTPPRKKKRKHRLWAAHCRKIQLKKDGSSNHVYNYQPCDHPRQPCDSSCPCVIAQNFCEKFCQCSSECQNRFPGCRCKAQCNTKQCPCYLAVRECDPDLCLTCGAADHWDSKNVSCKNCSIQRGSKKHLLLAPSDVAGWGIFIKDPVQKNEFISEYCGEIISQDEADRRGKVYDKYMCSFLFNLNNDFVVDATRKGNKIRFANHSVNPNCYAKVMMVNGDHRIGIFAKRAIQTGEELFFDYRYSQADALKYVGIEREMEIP

Target: Enhancer of zeste homolog 2 (EZH2) (human (endogenous in Hep-2 and TU-177)) (UniProt Q15910)
Experiment: co-IP; proteins extracted from Hep-2 and TU-177 cells incubated with anti-EZH2 antibody (ab186006) and protein-A/G-agarose beads at 4°C overnight, washed four times with lysis buffer, Western blot

binding | Binder
binds | ZEB1 (protein, UniProt P37275 1-1124) MADGPRCKRRKQANPRRNNVTNYNTVVETNSDSDDEDKLHIVEEESVTDAADCEGVPEDDLPTDQTVLPGRSSEREGNAKNCWEDDRKEGQEILGPEAQADEAGCTVKDDECESDAENEQNHDPNVEEFLQQQDTAVIFPEAPEEDQRQGTPEASGHDENGTPDAFSQLLTCPYCDRGYKRFTSLKEHIKYRHEKNEDNFSCSLCSYTFAYRTQLERHMTSHKSGRDQRHVTQSGCNRKFKCTECGKAFKYKHHLKEHLRIHSGEKPYECPNCKKRFSHSGSYSSHISSKKCISLIPVNGRPRTGLKTSQCSSPSLSASPGSPTRPQIRQKIENKPLQEQLSVNQIKTEPVDYEFKPIVVASGINCSTPLQNGVFTGGGPLQATSSPQGMVQAVVLPTVGLVSPISINLSDIQNVLKVAVDGNVIRQVLENNQANLASKEQETINASPIQQGGHSVISAISLPLVDQDGTTKIIINYSLEQPSQLQVVPQNLKKENPVATNSCKSEKLPEDLTVKSEKDKSFEGGVNDSTCLLCDDCPGDINALPELKHYDLKQPTQPPPLPAAEAEKPESSVSSATGDGNLSPSQPPLKNLLSLLKAYYALNAQPSAEELSKIADSVNLPLDVVKKWFEKMQAGQISVQSSEPSSPEPGKVNIPAKNNDQPQSANANEPQDSTVNLQSPLKMTNSPVLPVGSTTNGSRSSTPSPSPLNLSSSRNTQGYLYTAEGAQEEPQVEPLDLSLPKQQGELLERSTITSVYQNSVYSVQEEPLNLSCAKKEPQKDSCVTDSEPVVNVIPPSANPINIAIPTVTAQLPTIVAIADQNSVPCLRALAANKQTILIPQVAYTYSTTVSPAVQEPPLKVIQPNGNQDERQDTSSEGVSNVEDQNDSDSTPPKKKMRKTENGMYACDLCDKIFQKSSSLLRHKYEHTGKRPHECGICKKAFKHKHHLIEHMRLHSGEKPYQCDKCGKRFSHSGSYSQHMNHRYSYCKREAEERDSTEQEEAGPEILSNEHVGARASPSQGDSDERESLTREEDEDSEKEEEEEDKEMEELQEEKECEKPQGDEEEEEEEEEVEEEEVEEAENEGEEAKTEGLMKDDRAESQASSLGQKVGESSEQVSEEKTNEA
binds weakly | CDKN1C (protein, UniProt P49918 1-316) MSDASLRSTSTMERLVARGTFPVLVRTSACRSLFGPVDHEELSRELQARLAELNAEDQNRWDYDFQQDMPLRGPGRLQWTEVDSDSVPAFYRETVQVGRCRLLLAPRPVAVAVAVSPPLEPAAESLDGLEEAPEQLPSVPVPAPASTPPPVPVLAPAPAPAPAPVAAPVAAPVAVAVLAPAPAPAPAPAPAPAPVAAPAPAPAPAPAPAPAPAPAPDAAPQESAEQGANQGQRGQEPLADQLHSGISGRPAAGTAAASANGAAIKKLSGPLISDFFAKRKRSAPEKSSGDVPAPCPSPSAAPGVGSVEQTPRKRLR
